Results taken from PubChem BioAssay AID504444 (National Center for Advancing Translational Sciences (NCATS), 2011).
Hit rate of the full screen: of about 360,000 compounds, about 7,500 (2.1%) were called active. This list was built around the results that the source calls inconclusive (neither active nor inactive); the mix of calls is not that of the screen. Calls follow the shape of the dose curve; as a rule, active = well fitted inhibition curve with a large enough effect; inconclusive = small, poorly fitted or top-dose-only effect, or effect the other way; inactive = flat fitted curve, though single readings scatter. Potencies beside an inconclusive call are fits to weak or partial responses and may not hold up.

assay: Nrf2 qHTS screen for inhibitors; conditions: A549 ARE-Fluc reporter, luciferase luminescence, 18-24 h; activity change, negative = inhibition: at 46 µM (top of the series); also: nearly all actives have a fitted effect of over 60% in size
Summary of the method: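 Quantitative HTS in A549 cells stably bearing an antioxidant response element-firefly luciferase construct. Inhibition of Nrf2-driven transcription was scored by luminescence after 18-24 h of compound exposure at 37 °C.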
% is scaled to controls: 0 for no effect and ±100 for the full control effect; potency is read from the fitted curve at half-maximal effect.

| Compound | Potency | activity change, negative = inhibition |
| --- | --- | --- |
| COc1cccc(/C=N/NC(=O)c2ccccc2NC(=O)c2ccco2)c1OC | inconclusive: 29.1 µM [falling, single point] |  |
| Cc1ccc2nc(/C(C#N)=C\c3ccc(OC(=O)c4cccs4)cc3)[nH]c2c1 | active: 4.61 µM |  |
| Cc1c(C(=O)N2CCOCC2)oc2ccc(S(=O)(=O)N3CCCC3)cc12 |  | inactive: -13.4% |
| COc1ccc(CCN(C)Cc2c(O)ccc3cc(Br)ccc23)cc1OC |  | inactive: 20.8% |
| CCOc1cc(/C=C(/NC(C)=O)C(=O)O)cc(Cl)c1OCc1ccc(Br)cc1 |  | inactive: 2.02% |
| O=C(COc1ccc2c(c1)OCO2)Nc1nccs1 | inconclusive: 0.517 µM [activator, partial curve, poor fit] |  |
| COc1cccc(NS(=O)(=O)c2ccc3c(c2)n(C)c(=O)n3C)c1 | inconclusive: 9.2 µM [falling, partial curve] |  |
| COc1ccccc1NC1=Nc2cccc3cccc1c23 |  | inactive: -27.5% |
| Cc1cccc(NC(=O)Nc2ccc(Cl)c(Cl)c2)n1 | inconclusive: 1.64 µM [activator, partial curve, poor fit] |  |
| Cc1cccc2cc(CN(Cc3nnnn3C3CCCCC3)C3CCCC3)c3nnnn3c12 | inconclusive: 32.6 µM [falling, single point] |  |
| Cc1csc(NC(=O)C(C)N2C(=O)c3ccccc3S2(=O)=O)n1 (centres undefined) |  | inactive: 24.3% |
| Cn1ncc2c1ncn1nc(CCc3ccccc3)nc21 | inconclusive: 0.82 µM [activator, full curve] |  |
| COc1ccc(CCNC2=C(Cl)C(=O)N(CCc3ccccc3)C2=O)cc1OC | inconclusive: 16.4 µM [falling, partial curve, poor fit] |  |
| CC(C)n1cnc2cc(NC(=O)c3ccco3)ccc21 | inconclusive: 2.91 µM [activator, single point] |  |
| CCN(Cc1ccccc1)S(=O)(=O)c1ccc(S(=O)(=O)N(Cc2ccccn2)Cc2ccco2)cc1 | inconclusive: 29.1 µM [falling, partial curve, poor fit] |  |
| Cc1nnc2c(N3CCN(C(=O)c4ccco4)CC3)nc3ccccc3n12 | inconclusive: 10.3 µM [falling, partial curve, poor fit] |  |
| Cc1ccc(Cn2c(SCc3ccc(C(=O)NC4CCCCC4)cc3)nc3ccncc32)cc1 | active: 20.6 µM |  |
| CNC(=O)c1cc2cc(OC)ccc2n1CCN(C)C |  | inactive: -9.88% |
| CCN1CCc2c(sc(N)c2C#N)C1 |  | inactive: 9.02% |
| COc1ccccc1Cn1c(-c2ccco2)nc2nc3ccccc3nc21 | inconclusive: 4.61 µM [activator, full curve] |  |
| Cc1ccc(NS(=O)(=O)c2cc([N+](=O)[O-])ccc2NNC(=S)Nc2cc(C)ccc2C)c(C)c1 | inconclusive: 16.4 µM [falling, single point] |  |
| CC1CCC(NC(=O)c2cccc(S(=O)(=O)N3CCN(c4ccc(F)cc4)CC3)c2)CC1 (centres undefined) | inconclusive: 2.31 µM [falling, single point] |  |
| CC1(C2CC2)NC(=O)N(CC(=O)Nc2ccccc2-c2ccccc2)C1=O (centres undefined) |  | inactive: 17.3% |

Whole records as entered above:
Cc1cccc2cc(CN(Cc3nnnn3C3CCCCC3)C3CCCC3)c3nnnn3c12 is entered as Potency: inconclusive: 32.6 µM [falling, single point]
Cc1c(C(=O)N2CCOCC2)oc2ccc(S(=O)(=O)N3CCCC3)cc12 is entered as activity change, negative = inhibition: inactive: -13.4%

Further results:

| Compound | Potency | activity change, negative = inhibition |
| --- | --- | --- |
| Cc1cc(NC(=O)c2ccccc2)c(Cl)cc1N | active: 8.2 µM |  |
| O=C1CC(c2ccco2)Cc2nc(Nc3nc(-c4ccccc4)c4ccccc4n3)ncc21 (centres undefined) | inconclusive: 18.4 µM [falling, partial curve, poor fit] |  |
| COc1ccc(CNC(=O)c2cc(=O)c3ccccc3o2)cc1 | active: 13 µM |  |
| Cc1ccc(CN2CCC(CNC(=O)c3cnn(-c4ccccc4Cl)c3C3CCN(C(=O)OC(C)(C)C)CC3)CC2)cc1 | inconclusive: 32.6 µM [falling, single point] |  |
| Oc1ccc(Br)cc1C1C=C(c2ccc3c(c2)OCO3)NC(c2ccc(F)c(Br)c2)N1 (centres undefined) | inconclusive: 11.6 µM [falling, partial curve, poor fit] |  |
| Cc1ccc(S(=O)(=O)N2CCCC(C(=O)N3CCCc4ccccc43)C2)cc1 (centres undefined) |  | inactive: -29% |
| O=C(c1ccc(O)cc1)c1ccc(C(=O)c2ccc(O)cc2)cc1 | inconclusive: 6.51 µM [falling, single point] |  |
| CCOc1ccc(CN2CCC(n3nccc3NC(=O)CCCc3ccccc3)CC2)cc1 | inconclusive: 2.06 µM [falling, partial curve, poor fit] |  |
| CC(=O)n1cc(CO)c2ccccc21 |  | inactive: 5.79% |
| C/C(=N/OC(=O)C1CC1)c1cc(-c2ccc(Cl)cc2)no1 | inconclusive: 8.2 µM [activator, partial curve] |  |
| O=C(c1ccc(Br)o1)N1CCN(C/C=C/c2ccccc2)CC1 |  | inactive: 4.88% |
| COc1cc(/C=C/c2nc(C#N)c(N3CCN(C)CC3)o2)cc(OC)c1OC |  | inactive: 2.15% |
| CCCCCn1nc(C(=O)N2CCc3ccccc32)c2ccccc2c1=O | inconclusive: 18.4 µM [falling, single point] |  |
| COc1ccc(C(=O)CSc2ccccc2C(=O)O)cc1 | inconclusive: 4.61 µM [activator, partial curve, poor fit] |  |
| O=[N+]([O-])c1ccc(-c2nnc(-c3ccccc3)c(NCCCO)n2)cc1 |  | inactive: 7.64% |
| C#CCOCCOCCOCCNc1nc(N2CCN(C(=O)CCCCCCCCCCNC(=O)[C@@H](CCSC)n3cc(CCO)nn3)CC2)nc(N2CCN(C(=O)CCCCCCCCCCNC(=O)[C@H]([C@@H](C)CC)n3cc(CCCCN=C(N)N)nn3)CC2)n1 | inconclusive: 29.1 µM [falling, single point] |  |
| O=C(COc1ccc(S(=O)(=O)NCc2ccccc2)cc1)N1CCOCC1 | inconclusive: 7.31 µM [falling, single point] |  |
| CCCN(CCC)C(=O)CC(c1ccc(F)cc1)c1ccco1 (centres undefined) | inconclusive: 2.31 µM [falling, partial curve, poor fit] |  |
| O=C(NC(=S)Nc1ccc2ncccc2c1)c1ccccc1 | inconclusive: 1.64 µM [activator, full curve, poor fit] |  |
| CCc1c(C)[nH]c2nc3ccccc3n2c1=O |  | inactive: 11.2% |
| Nc1cc(N2CCCC2)ccc1[N+](=O)[O-] | inconclusive: 16.4 µM [falling, partial curve, poor fit] |  |
| Cc1ccc2c(C)nc(Nc3nc(CSc4nnnn4-c4ccccc4)cc(=O)[nH]3)nc2c1 | inconclusive: 29.1 µM [falling, single point] |  |
| S=C(Nc1ccccn1)c1ccccn1 | inconclusive: 2.59 µM [activator, full curve] |  |

Individual results from the list.
Cc1c(C(=O)N2CCOCC2)oc2ccc(S(=O)(=O)N3CCCC3)cc12 | activity change, negative = inhibition: inactive: -13.4%
Cc1cc(NC(=O)c2ccccc2)c(Cl)cc1N | Potency: active: 8.2 µM
CC(C)n1cnc2cc(NC(=O)c3ccco3)ccc21 | Potency: inconclusive: 2.91 µM [activator, single point]
COc1ccc(C(=O)CSc2ccccc2C(=O)O)cc1 | Potency: inconclusive: 4.61 µM [activator, partial curve, poor fit]

Following part

| Compound | Potency | activity change, negative = inhibition |
| --- | --- | --- |
| CCOc1ccc(C(=O)/C=C/Nc2ccc(S(=O)(=O)N=C(N)N)cc2)cc1 |  | inactive: -5.32% |
| O=C(COc1ccccc1Cl)NC(=S)N1CCc2ccccc21 | inconclusive: 13 µM [activator, partial curve] |  |
| CCCCNc1c(-c2cccc(-c3ccc(OC)cc3)c2)nc2ccc(C)cn12 | inconclusive: 29.1 µM [falling, single point] |  |
| COc1ccc(Cc2noc(CN3CCN(Cc4cccc(Cl)c4)CC3)n2)cc1OC | inconclusive: 13 µM [falling, partial curve] |  |
| COc1cc(-c2nnc(COC(=O)CSc3cc(C)c4ccccc4n3)o2)cc(OC)c1OC |  | inactive: -1.13% |
| Nc1c(Cl)ncnc1N/N=C/c1ccnc2ccccc12 |  | inactive: 9.69% |
| O=C(Cn1c(=O)n(Cc2ccccc2)c(=O)c2ccccc21)NCc1ccco1 | inconclusive: 23.1 µM [activator, partial curve, poor fit] |  |
| COc1ccc2c(c1)c(N1CCCC1=O)c(C(=O)Nc1ccc(OC)c(Cl)c1)n2C |  | inactive: -35.3% |
| Oc1ccc(N2CCN(c3ncnc4sc5c(c34)CCC5)CC2)cc1 | active: 14.6 µM |  |
| CCOc1ccc(CNC(=O)Cn2c(=O)c3cccn3c3cccnc32)cc1 | inconclusive: 0.206 µM [activator, full curve, poor fit] |  |
| C=CCn1c(O)c(N=NC(=S)Nc2ccc(OC)cc2)c2ccccc21 | inconclusive: 20.6 µM [falling, partial curve] |  |
| Cc1cccc(NC(=O)c2ccc(C(=O)c3ccccc3)cc2)n1 | inconclusive: 29.1 µM [falling, single point] |  |
| COc1ccccc1C(=O)NC(CCSC)C(=O)N1CCC(Cc2ccccc2)CC1 (centres undefined) | inconclusive: 23.1 µM [falling, single point] |  |
| NC(=O)c1c(NC(=O)C2COc3ccccc3O2)sc2c1CCN(Cc1ccccc1)C2 (centres undefined) |  | inactive: -0.294% |
| N#Cc1ccc(N2CCN(c3ccc(F)cc3)CC2)cc1 | inconclusive: 0.92 µM [falling, full curve] |  |
| C/C(=N\NC(=O)C1CC1)c1ccc(C(C)(C)C)cc1 | inconclusive: 29.1 µM [activator, single point] |  |
| CCN1CCN(C(=O)c2cc3ccc(OC)cc3[nH]2)CC1 | inconclusive: 25.9 µM [activator, single point] |  |
| Cc1ccccc1-c1nc(Cc2ccc(Cl)cc2)no1 | inconclusive: 4.61 µM [activator, full curve] |  |
| CN(Cc1ccc(Cl)c(Cl)c1)C(=O)C1=CC=CN2CCS(=O)(=O)N=C12 | active: 8.2 µM |  |
| COc1cccc(NC(=O)Cn2c(=O)n(Cc3ccc4c(c3)OCO4)c(=O)c3oc4ccccc4c32)c1 | inconclusive: 2.91 µM [activator, partial curve, poor fit] |  |
| COc1cc(OC)c(OC)cc1/C=C/c1ccnc2ccccc12 |  | inactive: -11.6% |
| CC(C)(C)c1ccc(C(=O)NCc2nnc(SCC(=O)N3CCCc4ccccc43)n2-c2ccccc2)cc1 | inconclusive: 32.6 µM [falling, single point] |  |
| Cn1c(=NC(=O)C2=NNC(=O)CC2)sc2ccccc21 | inconclusive: 32.6 µM [falling, single point] |  |
